Test results as given in PubChem BioAssay AID602318 (Sanford-Burnham Center for Chemical Genomics, 2012).
Screen size: about 1,900 compounds; about 550 (29%) were called active. No stated cut-off is given here; in the data, active means inhibition above about 40%; inactive means the rest. This is a selection; strong and weak results do not stand in their true shares.

The chains behind the UniProt entries cited, without tags or fusion partners.
UniProt O00487, whole entry, looked up: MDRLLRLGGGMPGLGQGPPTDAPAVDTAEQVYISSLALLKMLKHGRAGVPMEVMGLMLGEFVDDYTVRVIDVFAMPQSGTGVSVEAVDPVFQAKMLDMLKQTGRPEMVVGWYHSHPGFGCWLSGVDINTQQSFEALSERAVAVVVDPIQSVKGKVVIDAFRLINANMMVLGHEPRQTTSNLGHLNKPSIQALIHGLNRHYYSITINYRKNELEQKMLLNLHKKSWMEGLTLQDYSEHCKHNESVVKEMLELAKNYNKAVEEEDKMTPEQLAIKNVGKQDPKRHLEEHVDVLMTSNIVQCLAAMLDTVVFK

molecular target: 26S proteasome non-ATPase regulatory subunit 14 (Homo sapiens) (UniProt O00487); assay: Rpn11 (PSMD14) deubiquitinase inhibitors, confirmation, biochemical, fluorescence polarization, single concentration (AID 602318); conditions: purified human 26S proteasome, Ub4-pepOG fluorescence polarization; at 20 µM; stronger effect = higher value

Compound | inhibition
Cc1cccc(N2C(=O)NC(=O)/C(=C\c3cnn(-c4ccccc4)c3)C2=O)c1 | inactive: 1.59%
